Experimental findings from article PMC4905742 are described below.

The chains behind the UniProt entries cited, without tags or fusion partners. Where a name states a change or a piece, a line headed by the entry shows the natural chain unless it says otherwise.
UniProt Q5TCQ9: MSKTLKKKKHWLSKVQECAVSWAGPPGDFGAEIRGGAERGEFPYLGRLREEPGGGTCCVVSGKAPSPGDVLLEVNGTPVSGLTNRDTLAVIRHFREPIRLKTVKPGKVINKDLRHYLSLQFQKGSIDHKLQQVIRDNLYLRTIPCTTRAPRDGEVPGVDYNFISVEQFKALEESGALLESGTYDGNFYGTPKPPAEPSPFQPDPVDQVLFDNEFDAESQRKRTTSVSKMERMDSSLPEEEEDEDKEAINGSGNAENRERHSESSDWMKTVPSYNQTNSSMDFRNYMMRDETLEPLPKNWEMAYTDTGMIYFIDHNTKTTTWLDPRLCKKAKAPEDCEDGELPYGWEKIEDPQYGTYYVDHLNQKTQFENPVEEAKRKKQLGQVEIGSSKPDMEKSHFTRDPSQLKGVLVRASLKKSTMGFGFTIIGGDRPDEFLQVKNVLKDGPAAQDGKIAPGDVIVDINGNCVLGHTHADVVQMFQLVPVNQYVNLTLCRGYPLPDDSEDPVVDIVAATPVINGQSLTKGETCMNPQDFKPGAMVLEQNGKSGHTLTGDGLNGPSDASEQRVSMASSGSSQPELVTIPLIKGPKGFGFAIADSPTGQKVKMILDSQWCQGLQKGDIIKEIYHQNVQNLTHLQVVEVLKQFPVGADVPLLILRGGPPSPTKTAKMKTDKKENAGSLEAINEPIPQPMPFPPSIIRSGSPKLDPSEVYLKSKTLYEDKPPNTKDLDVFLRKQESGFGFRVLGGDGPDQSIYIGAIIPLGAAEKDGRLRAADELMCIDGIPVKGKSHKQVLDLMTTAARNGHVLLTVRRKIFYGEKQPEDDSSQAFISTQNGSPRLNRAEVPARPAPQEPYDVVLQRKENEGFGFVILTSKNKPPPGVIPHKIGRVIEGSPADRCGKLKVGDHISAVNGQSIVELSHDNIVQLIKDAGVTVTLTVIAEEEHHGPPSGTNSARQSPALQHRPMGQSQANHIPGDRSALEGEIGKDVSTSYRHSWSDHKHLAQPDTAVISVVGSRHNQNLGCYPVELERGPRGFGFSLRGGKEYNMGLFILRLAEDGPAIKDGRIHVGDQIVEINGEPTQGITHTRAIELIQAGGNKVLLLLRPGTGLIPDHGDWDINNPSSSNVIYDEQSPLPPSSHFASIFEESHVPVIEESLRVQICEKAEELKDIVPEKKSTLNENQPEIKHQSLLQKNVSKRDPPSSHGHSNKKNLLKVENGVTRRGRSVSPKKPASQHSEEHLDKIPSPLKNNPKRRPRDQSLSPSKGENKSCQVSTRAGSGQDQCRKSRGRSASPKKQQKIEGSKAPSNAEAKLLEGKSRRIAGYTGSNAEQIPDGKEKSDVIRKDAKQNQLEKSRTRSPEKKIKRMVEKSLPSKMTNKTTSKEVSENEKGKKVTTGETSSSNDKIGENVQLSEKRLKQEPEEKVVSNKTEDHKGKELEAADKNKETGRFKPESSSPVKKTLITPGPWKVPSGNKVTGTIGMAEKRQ

No constants are given. Whether binding was seen depends on the method and setting. In cells and extracts the contact can be indirect. Here binding means that the protein was enriched with, or labelled near, the bait; the list need not be complete.

This test has as its target V5-tagged, full-length MAGI3 (in MCF10A cells) (human) (UniProt Q5TCQ9). Kind of test: affinity purification with mass spectrometry; affinity purification of V5-tagged full-length MAGI3 from MCF10A cells; IP lysates separated by SDS-PAGE, gel in six sections, LC-MS/MS; common contaminants (CRAPome) subtracted.

B1: SERPINB5 (protein, UniProt P36952 1-375)
chain: MDALQLANSAFAVDLFKQLCEKEPLGNVLFSPICLSTSLSLAQVGAKGDTANEIGQVLHFENVKDVPFGFQTVTSDVNKLSSFYSLKLIKRLYVDKSLNLSTEFISSTKRPYAKELETVDFKDKLEETKGQINNSIKDLTDGHFENILADNSVNDQTKILVVNAAYFVGKWMKKFSESETKECPFRVNKTDTKPVQMMNMEATFCMGNIDSINCKIIELPFQNKHLSMFILLPKDVEDESTGLEKIEKQLNSESLSQWTNPSTMANAKVKLSIPKFKVEKMIDPKACLENLGLKHIFSEDTSDFSGMSETKGVALSNVIHKVCLEITEDGGDSIEVPGARILQHKDELNADHPFIYIIRHNKTRNIIFFGKFCSP
In the case of B1, the binding entry is “binds”.
